# Results from the supplement of paper PMC10338343.
# ± gives the standard deviation. The entries are a selection whose mix differs from that of the whole data set. Many of these values have a large error.
# System: MILI (PIWIL2) piRISC loaded with L1MC piRNA (26 nt)
# Experiment: pre-steady-state target cleavage rate (min^-1); MIWI and MILI are mouse PIWI proteins and EfPiwi is from a freshwater sponge; tags in brackets are library labels; higher = faster piRNA-guided slicing of the target
# Settings: guide: L1MC piRNA 5'p-UAACUAAAUACUAUGCAAGCUGUAGG; auxiliary factor: 500 nM mouse GTSF1
# Procedure, shortened: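 A burst-and-steady-state fit was used to obtain the pre-steady-state cleavage rate. The input data were sequencing reads of uncleaved targets, normalised to depth and to weakly complementary targets, from a […] transcribed, DNA-blocked target RNA library mixed with 1 nM active affinity-purified piRISC holding one synthetic guide, with or without 500 nM GTSF1 partner protein, in HEPES–potassium acetate buffer at 33 °C for 0–8 or 0–960 min. Three trials were pooled and k3 was capped at 0.0001 min^-1.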
# 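Note: 1 nM active piRISC with 0.1 nM target library at 33 °C single turnover.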
row,Sequence,pre-steady-state target cleavage rate
1,UCCUGGAUGUCGAACGUAUCUAUUUAUGUUA,0.00032 ± 0.025
2,UCCUGGAUGUCGAACCAUAGUAUUUAGUAA,0.00131 ± 0.0058
3,UCCUGGAUGUCGAACCAUUGUAAUUAGUUA,0.000181 ± 0.044

# Same assay, conditions: guide: L1MC piRNA 5'p-UAACUAAAUACUAUGCAAGCUGUAGG; auxiliary factor: none (no GTSF1)
row,Sequence,pre-steady-state target cleavage rate
1,UCCUGGAUGAGCUUGCAUAGAUAUUAGUAA,0.000828 ± 0.0089
2,UCCUGGAACAGGUUCCAUAGUAUUUAGUUA,0.000527 ± 0.015
3,UCCUCCUACAGCUACGAUAGUAUUUAGUUA,0.00168 ± 0.0034
4,UCCUGGAUGUCGAACGUAAGUAUUUCAGUUA,0.000271 ± 0.016
5,UCCUGGAUGAGCUACGAUAGUAUUUACAAA,0.000214 ± 0.027
6,UCCUGGAUGUCGAAGCAUAGUAUUUAGAAA,0.000619 ± 0.0088
7,UCCUGCUACAGCUUGCUAUGUAUUUAGUAA,0.00128 ± 0.0045
8,UCCUGGAACAGCUUCGUUAGUAUUUACAAA,0.000147 ± 0.018
9,UCCUGGAUGUCCUUGCAUAGUAAAAUCAAA [g9:g19:cont:t1A],0.000794 ± 0.0059
10,UCCUGGAACAGCUUGGUUAGUAUUUAGAAA,0.00161 ± 0.0049
11,UCCUGGAUGUGCUUGCCAUAGUAUUUAGUUA,0.00141 ± 0.0061
12,UCCUGCUACAGCUUGCAUAGAUAUUACAAA,0.000604 ± 0.0076
13,UCCUCCUACAGCUUGCAUACAAUUUACAAA,0.000308 ± 0.0082
14,UCCUGGAUGUCGUUCCAUAGUAUUUAGUAA,0.000193 ± 0.021
15,UCCUGCUACAGCUUGCAUAGUAUUUUCAAA,0.0014 ± 0.0048
16,UCCUGGAACAGCAAGCAUAGUAUUUACAAA,0.000906 ± 0.0075
17,UCCUGGUACAGCUUGCAUAGUUAAUAGAAA,0.000671 ± 0.011
18,UCCUGCUACAGCUUCCAUAGUAAUUAGUUA,0.000722 ± 0.009
19,UCCUGCUACAGCUUGCAUUCUAUUUAGAAA,0.000613 ± 0.0077

row,Sequence,pre-steady-state target cleavage rate
1,UCCUGGAUGUCGAUGGAAAGUAUUUAGUUA,0.00039 ± 0.0098
2,UCCUGGUACAGCUUGCAUUCAAUUUUCAAA,0.00095 ± 0.0095
3,UCCUGCUACAGCUUGCAUUCAAUUUACAAA,0.000162 ± 0.02
4,UCCUGGAUGUGCUUCCAUAGUAUUAAGUUA,0.000804 ± 0.0074
5,UCCUGGAUGUGCUUGCAUUCAAUUUAGAAA,0.000228 ± 0.02
6,UCCUGGUACAGCUUGCAUUCAUAAAUCAAA [g13:g24:cont:t1A],0.00123 ± 0.005
7,UCCUGGAUGUCCUUGCAUAGUUAAUAGUAA,0.00103 ± 0.0048
8,UCCUGGAUCAGCUUGCAUAGUAAAUACAAA,0.00115 ± 0.0053
9,UCCUCCUACAGCUACGAUAGUAUUUAGUAA,0.00069 ± 0.0084
10,UCCUCCUACAGCUUGGUUAGUAUUUACAAA,0.00113 ± 0.0038
11,UCCUCCUACAGCUUGCAAUGUAUUUAGUAA,0.00225 ± 0.0029
12,UCCUGGAACUGCUUCCAUAGUAUUUAGUUA,0.00129 ± 0.0041
13,UCCUGCUACAGCAAGCAUAGUAUUUAGAAA,0.00133 ± 0.0055
14,UCCUGGAUGUCGUAGCAUAGUAUUUUGUUA,0.00166 ± 0.0042
15,UCCUGGAUGUGCUUGCAUUCAAUUUAGUAA,0.000657 ± 0.0075
16,UCCUGCUAGAGCUUGCAUAGUAUUUUCAAA,0.00123 ± 0.0053
17,UCCUGGAUGUGCAUGCAUAGAAUUUAGUUA,0.00234 ± 0.0035
18,UCCUGGAACAGCUUCCAUAGUAUAUAGUUA,0.000695 ± 0.0074

# Look-ups from the entries so far.
# pre-steady-state target cleavage rate, UCCUGGAUGUGCUUGCAUUCAAUUUAGUAA reads 0.000657 ± 0.0075
# pre-steady-state target cleavage rate, UCCUCCUACAGCUUGGUUAGUAUUUACAAA reads 0.00113 ± 0.0038
